This is an account of results in patent publication US20040001828A1.

Protein sequences, listed by entry. Tags and fused reporters are not part of them. Lines headed by an entry give the natural chain unless they say otherwise; changes in a name come on top.
UniProt P20273: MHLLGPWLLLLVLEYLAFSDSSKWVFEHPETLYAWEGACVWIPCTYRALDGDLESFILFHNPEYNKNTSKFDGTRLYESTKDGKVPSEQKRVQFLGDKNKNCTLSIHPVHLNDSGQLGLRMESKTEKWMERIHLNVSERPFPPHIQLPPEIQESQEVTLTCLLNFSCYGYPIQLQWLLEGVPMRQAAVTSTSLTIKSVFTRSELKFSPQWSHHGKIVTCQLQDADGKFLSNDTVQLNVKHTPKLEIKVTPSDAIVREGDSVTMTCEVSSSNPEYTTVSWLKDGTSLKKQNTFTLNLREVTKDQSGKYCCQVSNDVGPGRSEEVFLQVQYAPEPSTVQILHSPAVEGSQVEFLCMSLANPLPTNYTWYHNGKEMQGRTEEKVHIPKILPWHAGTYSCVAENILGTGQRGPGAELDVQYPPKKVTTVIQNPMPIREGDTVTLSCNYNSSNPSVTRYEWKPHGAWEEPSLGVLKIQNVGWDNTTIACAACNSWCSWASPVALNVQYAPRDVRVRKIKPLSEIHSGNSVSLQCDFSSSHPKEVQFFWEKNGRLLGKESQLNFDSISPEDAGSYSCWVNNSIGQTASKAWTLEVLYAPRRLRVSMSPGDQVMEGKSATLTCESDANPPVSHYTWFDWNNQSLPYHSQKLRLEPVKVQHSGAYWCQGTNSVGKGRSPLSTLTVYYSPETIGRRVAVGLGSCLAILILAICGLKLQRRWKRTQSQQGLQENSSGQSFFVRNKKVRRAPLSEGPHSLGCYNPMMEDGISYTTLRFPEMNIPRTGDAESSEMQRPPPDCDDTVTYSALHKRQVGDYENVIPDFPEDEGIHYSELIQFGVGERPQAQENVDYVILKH

For assay [1], the target named is human CD22 (hCD22) (human) (UniProt P20273). The assay can be described thus: flow cytometry on Raji and Ramos cells. A general note: A flow cytometer gives signals particle by particle.
Assay [2] shares this target. In words: hybridoma screening on mouse L cells transfected with CD22 cDNA.

No constants are given. Whether binding was seen depends on the method and setting. Some binding calls cover weakened binding; strength is not graded here.

B1: anti-CD22 monoclonal antibody HB22-7 (antibody, V domains shown)
VH: EVQLQESGPGLVAPSQSLSITCTVSGFSLSDYGVNWVRQIPGKGLEWLGIIWGDGRTDYNSALKSRLNISKDNSKSQVFLKMNSLKADDTARYYCARAPGNRAMEYWGQGTSVTVSS
VL: SIVMTQTPKFLLVSAGDRITLTCKASQSVTNDVAWYQQKPGQSPKLLIYYASNRYTGVPDRFTGSGYGTDFTFTISTVQAEDLAVYFCQQDYRSPWTFGGGTKLEIKR
Turning to B1, the binding result in assay [1] and in assay [2] was “binds” each time.
